Assay results reported in publication PMC11705626.
These are yes or no findings as the source states them, for the method shown. Binding seen in cells or lysates may run through a third protein. Some results given as binding are weak or reduced against the parent protein; the word gives no strength.

Biological target: T1, Caveolin-1 (mouse (endogenous in b. End3)) (UniProt P49817)
T1 sequence: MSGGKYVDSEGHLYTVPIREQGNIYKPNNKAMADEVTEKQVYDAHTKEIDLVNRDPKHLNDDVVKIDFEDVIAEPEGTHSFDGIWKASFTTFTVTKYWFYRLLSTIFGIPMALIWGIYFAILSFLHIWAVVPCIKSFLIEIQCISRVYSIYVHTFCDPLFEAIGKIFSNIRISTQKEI
Experiment: co-IP; anti-Cav-1 antibody (or normal rabbit IgG) on Protein G magnetic beads, 300 ug sample protein per group, overnight at 4 C, washed with PBS-T (0.5% Tween-20, pH 7.4), western blot; brain endothelial cells with or without OGD/R and Cav-1 siRNA

B1: Occludin (protein, UniProt Q61146 1-521)
chain: MSVRPFESPPPYRPDEFKPNHYAPSNDMYGGEMHVRPMLSQPAYSFYPEDEILHFYKWTSPPGVIRILSMLIIVMCIAIFACVASTLAWDRGYGTGLFGGSLNYPYSGFGYGGGYGGGYGGYGYGYGGYTDPRAAKGFLLAMAAFCFIASLVIFVTSVIRSGMSRTRRYYLIVIIVSAILGIMVFIATIVYIMGVNPTAQASGSMYGSQIYMICNQFYTPGGTGLYVDQYLYHYCVVDPQEAIAIVLGFMIIVAFALIIFFAVKTRRKMDRYDKSNILWDKEHIYDEQPPNVEEWVKNVSAGTQDMPPPPSDYAERVDSPMAYSSNGKVNGKRSYPESFYKSTPLVPEVAQEIPLTLSVDDFRQPRYSSNGNLETPSKRAPTKGKAGKGKRTDPDHYETDYTTGGESCEELEEDWVREYPPITSDQQRQLYKRNFDAGLQEYKSLQAELDDVNKELSRLDKELDDYREESEEYMAAADEYNRLKQVKGSADYKSKRNYCKQLKSKLSHIKRMVGDYDRRKP
binding: binds
